According to patent US6566327B1 (University of Ottawa, priority 1997, dated 2003):

experiment: general procedure: Boc solid-phase peptide synthesis; chloromethylated copolystyrene-divinylbenzene 1% crosslinkage (0.75 mequiv. Cl/g) for linear peptides; oxime-resin (Nova); pre-formed symmetrical anhydrides of Boc-amino acids; settings: whole synthesis

Row | Substance | isolated yield [%]
1 | cyclo(GQY[dR]) (SMILES N=C(N)NCCC[C@H]1NC(=O)[C@H](Cc2ccc(O)cc2)NC(=O)[C@H](CCC(N)=O)NC(=O)CNC1=O) | 5

same assay, conditions: whole synthesis, HPLC; thin layer chromatography

Row | Substance | final HPLC purity
2 | H-GQAR-OH | 95%-98%
3 | H-GQGR-OH | 95%-98%
4 | H-RQGR-OH | 95%-98%
5 | PEPTIDE1{R.Q.A.R}$$$$V2.0 | 95%-98%
6 | PEPTIDE1{R.Q.A.R}$PEPTIDE1,PEPTIDE1,4:R2-1:R1$$$V2.0 | 95%-98%
7 | cyclo(ARGQ) (SMILES C[C@@H]1NC(=O)[C@H](CCC(N)=O)NC(=O)CNC(=O)[C@H](CCCNC(=N)N)NC1=O) | 95%-98%
8 | cyclo(ARGQARGQ) (SMILES C[C@@H]1NC(=O)[C@H](CCC(N)=O)NC(=O)CNC(=O)[C@H](CCCNC(=N)N)NC(=O)[C@H](C)NC(=O)[C@H](CCC(N)=O)NC(=O)CNC(=O)[C@H](CCCNC(=N)N)NC1=O) | 98%
9 | cyclo(ARRQARRQ) (SMILES C[C@@H]1NC(=O)[C@H](CCC(N)=O)NC(=O)[C@H](CCCNC(=N)N)NC(=O)[C@H](CCCNC(=N)N)NC(=O)[C@H](C)NC(=O)[C@H](CCC(N)=O)NC(=O)[C@H](CCCNC(=N)N)NC(=O)[C@H](CCCNC(=N)N)NC1=O) | 95%
10 | cyclo(GQYR) (SMILES N=C(N)NCCC[C@@H]1NC(=O)[C@H](Cc2ccc(O)cc2)NC(=O)[C@H](CCC(N)=O)NC(=O)CNC1=O) | 95%-98%

same assay, conditions: whole synthesis, based on the starting Boc-amino acid resin

Row | Substance | isolated yield
11 | H-GQAR-OH | 20-25%

Some peptides are written in HELM: one residue between dots, names in brackets for other building blocks, links after the first $. Square brackets hold non-standard residues; d marks the D form.
